Assay results: the supplement of paper PMC10849652
This is one part of the list.

Amino acid sequences for entries named in this document (tags omitted). A change or cut given only in a name is not applied to a line headed by its entry.
UniProt P46736, whole entry, looked up: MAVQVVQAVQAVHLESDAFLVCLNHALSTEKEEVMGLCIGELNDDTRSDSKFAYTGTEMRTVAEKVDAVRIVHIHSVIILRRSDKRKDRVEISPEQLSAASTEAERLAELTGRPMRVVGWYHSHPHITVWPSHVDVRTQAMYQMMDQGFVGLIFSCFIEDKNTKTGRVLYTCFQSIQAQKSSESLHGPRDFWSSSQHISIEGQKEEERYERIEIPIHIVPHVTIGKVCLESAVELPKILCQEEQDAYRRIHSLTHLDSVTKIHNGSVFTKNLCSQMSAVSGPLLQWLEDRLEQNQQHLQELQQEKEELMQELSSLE
UniProt Q8WUW1: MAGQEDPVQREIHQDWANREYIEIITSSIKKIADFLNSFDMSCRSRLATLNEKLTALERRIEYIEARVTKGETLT
UniProt Q9UBB4: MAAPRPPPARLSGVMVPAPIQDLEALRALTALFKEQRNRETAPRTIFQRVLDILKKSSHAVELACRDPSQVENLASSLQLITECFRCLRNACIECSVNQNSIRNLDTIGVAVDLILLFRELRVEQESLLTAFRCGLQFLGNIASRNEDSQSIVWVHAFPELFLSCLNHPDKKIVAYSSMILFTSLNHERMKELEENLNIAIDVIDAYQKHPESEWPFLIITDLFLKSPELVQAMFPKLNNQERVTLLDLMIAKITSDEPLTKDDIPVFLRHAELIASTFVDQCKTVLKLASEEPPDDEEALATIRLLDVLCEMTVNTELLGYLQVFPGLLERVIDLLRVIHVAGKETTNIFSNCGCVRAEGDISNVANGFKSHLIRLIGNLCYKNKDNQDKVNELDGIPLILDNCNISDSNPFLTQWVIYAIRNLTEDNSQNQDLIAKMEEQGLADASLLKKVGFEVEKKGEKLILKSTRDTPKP
UniProt Q9H7T9: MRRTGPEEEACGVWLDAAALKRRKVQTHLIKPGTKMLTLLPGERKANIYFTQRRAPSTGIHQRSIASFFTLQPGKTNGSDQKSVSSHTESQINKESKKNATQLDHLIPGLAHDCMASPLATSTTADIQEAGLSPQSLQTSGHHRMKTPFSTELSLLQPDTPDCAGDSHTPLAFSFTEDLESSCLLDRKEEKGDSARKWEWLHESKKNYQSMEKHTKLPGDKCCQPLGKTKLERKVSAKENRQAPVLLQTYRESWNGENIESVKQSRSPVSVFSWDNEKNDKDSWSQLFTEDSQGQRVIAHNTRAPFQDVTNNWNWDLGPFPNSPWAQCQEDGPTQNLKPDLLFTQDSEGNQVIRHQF
UniProt O75363: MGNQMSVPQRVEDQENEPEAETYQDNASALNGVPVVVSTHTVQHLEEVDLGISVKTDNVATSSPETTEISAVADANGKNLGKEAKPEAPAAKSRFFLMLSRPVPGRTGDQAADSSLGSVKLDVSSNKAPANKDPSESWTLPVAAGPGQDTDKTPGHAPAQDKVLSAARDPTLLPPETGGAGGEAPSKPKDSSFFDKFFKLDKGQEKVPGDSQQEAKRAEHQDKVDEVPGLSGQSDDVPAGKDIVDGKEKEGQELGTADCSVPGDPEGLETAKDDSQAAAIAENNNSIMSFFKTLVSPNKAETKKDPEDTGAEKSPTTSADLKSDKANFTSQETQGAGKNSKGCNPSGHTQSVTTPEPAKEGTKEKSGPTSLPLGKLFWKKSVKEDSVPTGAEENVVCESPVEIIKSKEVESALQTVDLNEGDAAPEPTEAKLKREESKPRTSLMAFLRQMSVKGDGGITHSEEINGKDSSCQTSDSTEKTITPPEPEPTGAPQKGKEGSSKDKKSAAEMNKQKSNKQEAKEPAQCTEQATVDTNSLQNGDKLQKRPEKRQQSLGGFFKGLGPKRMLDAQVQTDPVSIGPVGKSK
UniProt Q9UIG0: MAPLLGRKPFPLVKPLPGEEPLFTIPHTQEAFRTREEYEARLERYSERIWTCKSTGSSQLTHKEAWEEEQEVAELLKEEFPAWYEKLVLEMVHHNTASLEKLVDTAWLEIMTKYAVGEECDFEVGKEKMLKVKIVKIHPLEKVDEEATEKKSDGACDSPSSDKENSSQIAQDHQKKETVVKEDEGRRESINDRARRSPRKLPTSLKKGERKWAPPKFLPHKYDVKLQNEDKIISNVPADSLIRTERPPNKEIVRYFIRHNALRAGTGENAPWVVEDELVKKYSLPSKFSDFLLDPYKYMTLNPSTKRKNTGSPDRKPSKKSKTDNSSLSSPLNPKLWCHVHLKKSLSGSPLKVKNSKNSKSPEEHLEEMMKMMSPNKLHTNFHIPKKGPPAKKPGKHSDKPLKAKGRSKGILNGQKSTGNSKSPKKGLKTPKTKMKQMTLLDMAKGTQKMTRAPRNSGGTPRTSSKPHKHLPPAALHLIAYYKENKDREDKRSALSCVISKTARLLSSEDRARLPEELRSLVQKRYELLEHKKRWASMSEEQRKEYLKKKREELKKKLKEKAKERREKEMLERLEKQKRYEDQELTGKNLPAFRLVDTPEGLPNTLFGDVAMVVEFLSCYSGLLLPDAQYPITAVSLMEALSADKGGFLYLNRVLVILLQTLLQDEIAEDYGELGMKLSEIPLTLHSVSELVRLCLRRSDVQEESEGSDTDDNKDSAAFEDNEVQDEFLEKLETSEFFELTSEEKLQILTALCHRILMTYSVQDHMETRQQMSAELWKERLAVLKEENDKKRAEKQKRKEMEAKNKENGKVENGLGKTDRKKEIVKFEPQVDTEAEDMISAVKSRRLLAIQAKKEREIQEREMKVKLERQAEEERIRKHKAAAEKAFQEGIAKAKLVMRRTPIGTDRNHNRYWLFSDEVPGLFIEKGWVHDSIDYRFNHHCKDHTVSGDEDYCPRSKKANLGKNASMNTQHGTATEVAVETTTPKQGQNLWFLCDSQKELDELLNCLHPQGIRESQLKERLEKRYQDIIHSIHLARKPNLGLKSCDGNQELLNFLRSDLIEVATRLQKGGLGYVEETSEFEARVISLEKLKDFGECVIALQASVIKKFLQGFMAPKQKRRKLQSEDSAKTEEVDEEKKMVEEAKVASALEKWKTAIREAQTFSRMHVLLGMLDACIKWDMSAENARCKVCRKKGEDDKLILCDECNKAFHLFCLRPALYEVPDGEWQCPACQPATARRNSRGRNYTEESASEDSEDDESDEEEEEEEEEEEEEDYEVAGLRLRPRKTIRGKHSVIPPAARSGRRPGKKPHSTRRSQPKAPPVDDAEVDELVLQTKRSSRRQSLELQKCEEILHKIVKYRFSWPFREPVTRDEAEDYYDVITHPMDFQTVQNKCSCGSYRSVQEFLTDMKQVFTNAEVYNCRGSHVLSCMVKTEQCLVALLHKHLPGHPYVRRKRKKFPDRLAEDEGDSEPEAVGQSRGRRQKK
UniProt Q6UW56: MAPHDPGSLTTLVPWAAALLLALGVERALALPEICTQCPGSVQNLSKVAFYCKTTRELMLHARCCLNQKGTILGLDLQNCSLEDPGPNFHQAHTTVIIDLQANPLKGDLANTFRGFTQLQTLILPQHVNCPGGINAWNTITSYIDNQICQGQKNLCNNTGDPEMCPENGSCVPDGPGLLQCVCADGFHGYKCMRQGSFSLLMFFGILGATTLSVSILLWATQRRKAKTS
UniProt Q9NWD9: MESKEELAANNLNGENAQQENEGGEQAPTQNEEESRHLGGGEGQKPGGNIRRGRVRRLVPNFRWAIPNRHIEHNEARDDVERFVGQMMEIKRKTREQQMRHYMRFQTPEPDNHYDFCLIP
UniProt P25440, whole entry, looked up: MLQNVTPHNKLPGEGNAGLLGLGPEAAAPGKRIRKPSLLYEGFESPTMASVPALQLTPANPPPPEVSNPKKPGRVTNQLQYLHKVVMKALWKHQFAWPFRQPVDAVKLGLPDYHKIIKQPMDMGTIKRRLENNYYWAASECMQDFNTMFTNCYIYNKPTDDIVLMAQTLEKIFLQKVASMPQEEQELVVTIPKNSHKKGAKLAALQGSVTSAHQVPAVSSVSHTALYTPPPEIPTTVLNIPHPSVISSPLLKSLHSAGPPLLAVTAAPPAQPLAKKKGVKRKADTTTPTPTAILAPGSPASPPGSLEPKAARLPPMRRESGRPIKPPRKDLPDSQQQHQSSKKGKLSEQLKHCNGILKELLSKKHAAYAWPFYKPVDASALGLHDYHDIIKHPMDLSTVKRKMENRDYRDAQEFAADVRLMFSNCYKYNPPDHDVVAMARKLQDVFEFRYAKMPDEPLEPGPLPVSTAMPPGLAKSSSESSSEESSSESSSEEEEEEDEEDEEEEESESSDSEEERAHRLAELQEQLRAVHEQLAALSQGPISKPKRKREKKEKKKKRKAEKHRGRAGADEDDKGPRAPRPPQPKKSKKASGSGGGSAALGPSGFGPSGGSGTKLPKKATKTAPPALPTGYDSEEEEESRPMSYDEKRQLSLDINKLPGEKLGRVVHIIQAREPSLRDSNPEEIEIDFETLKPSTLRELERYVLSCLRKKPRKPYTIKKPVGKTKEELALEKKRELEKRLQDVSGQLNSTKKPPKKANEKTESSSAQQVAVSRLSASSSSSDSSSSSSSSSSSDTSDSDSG
UniProt P61769, whole entry, looked up: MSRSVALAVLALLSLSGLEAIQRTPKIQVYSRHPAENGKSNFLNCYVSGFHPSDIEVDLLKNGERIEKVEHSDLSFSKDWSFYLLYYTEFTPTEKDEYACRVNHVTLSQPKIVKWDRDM
UniProt Q9H0E9, whole entry, looked up: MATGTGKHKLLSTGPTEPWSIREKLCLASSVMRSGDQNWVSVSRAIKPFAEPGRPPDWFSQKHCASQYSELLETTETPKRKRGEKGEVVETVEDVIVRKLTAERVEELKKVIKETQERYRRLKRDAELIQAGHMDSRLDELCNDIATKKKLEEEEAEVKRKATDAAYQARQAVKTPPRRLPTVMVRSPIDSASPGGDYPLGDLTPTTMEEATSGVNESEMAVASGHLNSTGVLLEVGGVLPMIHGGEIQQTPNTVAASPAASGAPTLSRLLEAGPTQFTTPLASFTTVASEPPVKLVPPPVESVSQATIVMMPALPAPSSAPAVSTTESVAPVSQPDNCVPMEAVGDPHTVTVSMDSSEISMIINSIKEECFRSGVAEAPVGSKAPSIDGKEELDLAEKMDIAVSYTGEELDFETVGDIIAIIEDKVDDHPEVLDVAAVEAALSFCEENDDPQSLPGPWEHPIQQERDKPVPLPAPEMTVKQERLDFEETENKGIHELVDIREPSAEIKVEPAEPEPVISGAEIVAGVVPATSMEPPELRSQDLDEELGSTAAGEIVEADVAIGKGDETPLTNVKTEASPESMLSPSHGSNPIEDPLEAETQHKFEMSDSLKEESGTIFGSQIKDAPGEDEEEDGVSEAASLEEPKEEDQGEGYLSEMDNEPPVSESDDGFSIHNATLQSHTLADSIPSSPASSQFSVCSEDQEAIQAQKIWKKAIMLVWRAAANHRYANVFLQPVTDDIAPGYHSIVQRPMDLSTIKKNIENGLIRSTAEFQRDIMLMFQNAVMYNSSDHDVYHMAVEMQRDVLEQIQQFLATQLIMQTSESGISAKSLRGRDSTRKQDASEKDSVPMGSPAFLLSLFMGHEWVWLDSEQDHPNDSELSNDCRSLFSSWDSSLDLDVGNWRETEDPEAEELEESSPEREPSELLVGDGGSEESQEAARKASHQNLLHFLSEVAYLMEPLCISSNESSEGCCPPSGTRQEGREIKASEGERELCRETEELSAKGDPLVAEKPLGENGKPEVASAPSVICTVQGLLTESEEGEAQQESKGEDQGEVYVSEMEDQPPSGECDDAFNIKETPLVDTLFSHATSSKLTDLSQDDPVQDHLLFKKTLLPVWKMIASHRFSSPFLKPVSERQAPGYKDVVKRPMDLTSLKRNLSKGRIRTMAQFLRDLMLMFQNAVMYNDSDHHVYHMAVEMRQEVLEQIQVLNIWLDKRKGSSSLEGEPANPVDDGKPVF
UniProt Q4VC05, whole entry, looked up: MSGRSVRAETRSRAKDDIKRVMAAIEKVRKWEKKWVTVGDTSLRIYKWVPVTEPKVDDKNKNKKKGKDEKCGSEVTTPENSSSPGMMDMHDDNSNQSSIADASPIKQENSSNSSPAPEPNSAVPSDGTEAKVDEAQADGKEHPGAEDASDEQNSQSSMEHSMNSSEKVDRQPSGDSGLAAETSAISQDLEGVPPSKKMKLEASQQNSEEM
UniProt Q12983, whole entry, looked up: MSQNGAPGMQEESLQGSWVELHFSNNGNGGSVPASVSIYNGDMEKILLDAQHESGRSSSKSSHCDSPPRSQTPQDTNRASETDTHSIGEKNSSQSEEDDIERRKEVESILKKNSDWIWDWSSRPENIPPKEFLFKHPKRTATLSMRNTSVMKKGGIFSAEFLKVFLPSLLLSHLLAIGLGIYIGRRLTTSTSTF
UniProt Q9H6S1, whole entry, looked up: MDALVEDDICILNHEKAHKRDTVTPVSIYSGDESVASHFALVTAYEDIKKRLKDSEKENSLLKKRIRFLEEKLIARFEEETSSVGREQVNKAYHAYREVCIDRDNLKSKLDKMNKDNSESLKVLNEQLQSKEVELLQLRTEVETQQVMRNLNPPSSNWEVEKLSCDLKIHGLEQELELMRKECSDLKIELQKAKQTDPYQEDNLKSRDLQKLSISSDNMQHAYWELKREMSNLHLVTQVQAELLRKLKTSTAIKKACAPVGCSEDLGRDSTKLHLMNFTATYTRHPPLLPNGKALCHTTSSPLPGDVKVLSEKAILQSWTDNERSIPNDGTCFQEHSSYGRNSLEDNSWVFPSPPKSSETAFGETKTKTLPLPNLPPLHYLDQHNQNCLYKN

Legend:
Test in all cases: log2 fold change, soluble protein after heating vs DMSO (PISA); higher = thermal stabilisation; K562 cells, 10 uM, 30 min; active = over 0.2 and 3.5 SD of the protein, either way, in both replicates (recomputed)
[1] = compound: CC1=C(C=C(C=C1)NC(=O)C2=CC(=CC=C2)C(C)(C)C#N)NC3=CC4=C(C=C3)N=CN(C4=O)C
In short: (§1)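 Soluble protein was quantified by TMTpro 16plex LC-MS/MS after channel sums were equalised. It was obtained as the supernatant after 21,000xg for 90 min from pooled aliquots of K562 cells (2×10^6 cells/mL, 10 μM compound, 30 min) heated for 3 min across 48°C-58°C and extracted in PBS with 0.5% NP-40 at 4°C. Thermal stability values are relative to control samples and come from duplicates. They are given as log2 fold changes.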

[2] = compound: CC1=C(C=C(C=C1)NC(=O)C2=CC(=CC=C2)N(C)C)NC(=O)C3=CC=C(C=C3)O
In short: as §1

[3] = compound: CC1=CC=C(C=C1)SC2=C3C=C(SC3=CN=C2)C(=O)N
In short: as §1

[4] = compound: CC1=NC(=CC=C1)C2=C(N=C(N2)C(C)(C)C)C3=CC4=NC=CN=C4C=C3
In short: as §1

Nexturastat A = compound: CCCCN(Cc1ccc(C(=O)NO)cc1)C(=O)Nc1ccccc1 [Nexturastat A]
In short: as §1

vemurafenib = compound: CCCS(=O)(=O)Nc1ccc(F)c(C(=O)c2c[nH]c3ncc(-c4ccc(Cl)cc4)cc23)c1F [vemurafenib]
In short: as §1

[5] = compound: CCCS(=O)(=O)Nc1ccc(F)c(C(=O)c2c[nH]c3ncc(Cl)cc23)c1F
In short: as §1

[6] = compound: CCCc1cc(C)[nH]c(=O)c1CNC(=O)c1cc(-c2ccnc(N3CCN(C)CC3)c2)cc2c1cnn2C(C)C
In short: as §1

givinostat = compound: CCN(CC)Cc1ccc2cc(COC(=O)Nc3ccc(C(=O)NO)cc3)ccc2c1 [givinostat]
In short: as §1

barasertib = compound: CCN(CCCOc1ccc2c(Nc3cc(CC(=O)Nc4cccc(F)c4)[nH]n3)ncnc2c1)CCOP(=O)(O)O [barasertib]
In short: as §1

## BRCC3 (UniProt P46736)
[1]
  log2 fold change: inactive: -0.061
[2]
  log2 fold change: inactive: 0.007
[3]
  log2 fold change: inactive: -0.009
[4]
  log2 fold change: inactive: -0.066
Nexturastat A
  log2 fold change: inactive: -0.043
vemurafenib
  log2 fold change: inactive: -0.037
[5]
  log2 fold change: inactive: -0.014
[6]
  log2 fold change: inactive: -0.041
givinostat
  log2 fold change: inactive: -0.016
barasertib
  log2 fold change: inactive: -0.046

## B4GALT3 (UniProt O60512)
[1]
  log2 fold change: inactive: 0.047
[2]
  log2 fold change: inactive: 0.039
[3]
  log2 fold change: inactive: -0.03
[4]
  log2 fold change: inactive: 0.103
Nexturastat A
  log2 fold change: inactive: -0.205
vemurafenib
  log2 fold change: inactive: 0.083
[5]
  log2 fold change: inactive: -0.002
[6]
  log2 fold change: inactive: 0.053
givinostat
  log2 fold change: inactive: -0.028
barasertib
  log2 fold change: inactive: -0.008

## BCL9L (UniProt Q86UU0)
[1]
  log2 fold change: inactive: -0.046
[2]
  log2 fold change: inactive: -0.012
[3]
  log2 fold change: inactive: 0.005
[4]
  log2 fold change: inactive: -0.033
Nexturastat A
  log2 fold change: inactive: -0.033
vemurafenib
  log2 fold change: inactive: -0.037
[5]
  log2 fold change: inactive: -0.014
[6]
  log2 fold change: inactive: -0.029
givinostat
  log2 fold change: inactive: 0.043
barasertib
  log2 fold change: inactive: -0.001

## BRK1 isoform 2 (UniProt Q8WUW1)
[1]
  log2 fold change: inactive: -0.055
[2]
  log2 fold change: inactive: -0.076
[3]
  log2 fold change: inactive: 0.103
[4]
  log2 fold change: inactive: 0.069
Nexturastat A
  log2 fold change: inactive: -0.02
vemurafenib
  log2 fold change: inactive: 0.044
[5]
  log2 fold change: inactive: -0.004
[6]
  log2 fold change: inactive: 0.002
givinostat
  log2 fold change: inactive: 0.022
barasertib
  log2 fold change: inactive: 0.032

## BLMH (UniProt Q13867)
[1]
  log2 fold change: inactive: 0.019
[2]
  log2 fold change: inactive: 0.038
[3]
  log2 fold change: inactive: 0.115
[4]
  log2 fold change: inactive: 0.009
Nexturastat A
  log2 fold change: inactive: -0.06
vemurafenib
  log2 fold change: inactive: 0.041
[5]
  log2 fold change: inactive: -0.034
[6]
  log2 fold change: inactive: 0.013
givinostat
  log2 fold change: inactive: -0.087
barasertib
  log2 fold change: inactive: -0.026

## ATXN10 (UniProt Q9UBB4)
[1]
  log2 fold change: inactive: 0.036
[2]
  log2 fold change: inactive: -0.019
[3]
  log2 fold change: inactive: -0.025
[4]
  log2 fold change: inactive: 0.043
Nexturastat A
  log2 fold change: inactive: -0.02
vemurafenib
  log2 fold change: inactive: 0.012
[5]
  log2 fold change: inactive: 0.02
[6]
  log2 fold change: inactive: 0.057
givinostat
  log2 fold change: inactive: -0.001
barasertib
  log2 fold change: inactive: 0.001

## BRIP1 (UniProt Q9BX63)
[1]
  log2 fold change: inactive: -0.049
[2]
  log2 fold change: inactive: -0.007
[3]
  log2 fold change: inactive: -0.009
[4]
  log2 fold change: inactive: -0.03
Nexturastat A
  log2 fold change: inactive: 0.23
vemurafenib
  log2 fold change: inactive: 0.184
[5]
  log2 fold change: inactive: 0.045
givinostat
  log2 fold change: inactive: 0.004
barasertib
  log2 fold change: inactive: -0.162

## BAG1 (UniProt Q99933)
[1]
  log2 fold change: inactive: -0.014
[2]
  log2 fold change: inactive: 0.044
[3]
  log2 fold change: inactive: 0.013
[4]
  log2 fold change: inactive: 0.019
Nexturastat A
  log2 fold change: inactive: -0.024
vemurafenib
  log2 fold change: inactive: 0
[5]
  log2 fold change: inactive: 0.005
[6]
  log2 fold change: inactive: -0.025
givinostat
  log2 fold change: inactive: -0.007
barasertib
  log2 fold change: inactive: -0.003

## AUNIP isoform 2 (UniProt Q9H7T9)
[1]
  log2 fold change: inactive: 0.113
[3]
  log2 fold change: inactive: 0.101
vemurafenib
  log2 fold change: inactive: 0.081
[5]
  log2 fold change: inactive: 0.073
givinostat
  log2 fold change: inactive: 0.083

## BAK1 (UniProt Q16611)
[1]
  log2 fold change: inactive: -0.006
[3]
  log2 fold change: inactive: -0.019
[4]
  log2 fold change: inactive: 0.001
Nexturastat A
  log2 fold change: inactive: -0.095
vemurafenib
  log2 fold change: inactive: -0.095
[5]
  log2 fold change: inactive: 0.005
[6]
  log2 fold change: inactive: -0.063
givinostat
  log2 fold change: inactive: -0.07
barasertib
  log2 fold change: inactive: -0.01

## BRD3 (UniProt Q15059)
[1]
  log2 fold change: inactive: 0.261
[2]
  log2 fold change: inactive: 0.008
[3]
  log2 fold change: inactive: 0.035
[4]
  log2 fold change: inactive: -0.003
vemurafenib
  log2 fold change: inactive: 0.198
[5]
  log2 fold change: inactive: -0.048
[6]
  log2 fold change: inactive: -0.017
givinostat
  log2 fold change: active: -0.842
barasertib
  log2 fold change: inactive: -0.339

## BCAS1 (UniProt O75363)
[1]
  log2 fold change: inactive: 0.006
[2]
  log2 fold change: inactive: 0.247
[3]
  log2 fold change: inactive: 0.014
Nexturastat A
  log2 fold change: inactive: -0.097
vemurafenib
  log2 fold change: inactive: -0.035
[5]
  log2 fold change: inactive: -0.04
[6]
  log2 fold change: inactive: -0.102
givinostat
  log2 fold change: inactive: -0.043
barasertib
  log2 fold change: inactive: -0.115

## B3GNT5 (UniProt Q9BYG0)
[1]
  log2 fold change: inactive: -0.06
[4]
  log2 fold change: inactive: -0.023
Nexturastat A
  log2 fold change: inactive: 0.028
vemurafenib
  log2 fold change: inactive: -0.155
[6]
  log2 fold change: inactive: -0.062
givinostat
  log2 fold change: inactive: 0.037
barasertib
  log2 fold change: inactive: -0.104

## BAZ1B (UniProt Q9UIG0)
[1]
  log2 fold change: inactive: -0.08
[4]
  log2 fold change: inactive: -0.025
vemurafenib
  log2 fold change: inactive: -0.115
[6]
  log2 fold change: inactive: 0.058

## ATRAID isoform 3 (UniProt Q6UW56)
[1]
  log2 fold change: inactive: -0.045
[2]
  log2 fold change: inactive: -0.007
[3]
  log2 fold change: inactive: -0.026
[4]
  log2 fold change: inactive: -0.007
vemurafenib
  log2 fold change: inactive: -0.061
[5]
  log2 fold change: inactive: -0.072
[6]
  log2 fold change: inactive: -0.012
givinostat
  log2 fold change: inactive: 0.022
barasertib
  log2 fold change: inactive: -0.013

## BEX4 (UniProt Q9NWD9)
[1]
  log2 fold change: inactive: -0.131
[6]
  log2 fold change: inactive: -0.315
givinostat
  log2 fold change: inactive: 0.094
barasertib
  log2 fold change: inactive: 0.088

## BCR (UniProt P11274)
[1]
  log2 fold change: inactive: 0.029
[2]
  log2 fold change: inactive: -0.129
[3]
  log2 fold change: inactive: 0.011
[4]
  log2 fold change: inactive: -0.136
Nexturastat A
  log2 fold change: inactive: 0.236
[5]
  log2 fold change: inactive: 0.027
[6]
  log2 fold change: inactive: 0.303
givinostat
  log2 fold change: inactive: 0.151
barasertib
  log2 fold change: inactive: -0.031

## BRD2 isoform 2 (UniProt P25440)
[1]
  log2 fold change: inactive: 0.348
[3]
  log2 fold change: inactive: 0.039
[4]
  log2 fold change: inactive: 0.076
vemurafenib
  log2 fold change: inactive: -0.033
[5]
  log2 fold change: inactive: 0.014
givinostat
  log2 fold change: inactive: -0.596
barasertib
  log2 fold change: inactive: -0.053

## B2M (UniProt P61769)
[1]
  log2 fold change: inactive: 0.065
[2]
  log2 fold change: inactive: -0.099
[3]
  log2 fold change: inactive: 0.021
Nexturastat A
  log2 fold change: inactive: -0.005
vemurafenib
  log2 fold change: inactive: -0.021
[5]
  log2 fold change: inactive: 0.003
[6]
  log2 fold change: inactive: 0.016
givinostat
  log2 fold change: inactive: -0.027
barasertib
  log2 fold change: inactive: -0.044

## ATXN7L3 isoform 2 (UniProt Q14CW9)
[1]
  log2 fold change: inactive: 0.013
[2]
  log2 fold change: inactive: -0.017
[4]
  log2 fold change: inactive: -0.09
[6]
  log2 fold change: inactive: 0.137
givinostat
  log2 fold change: inactive: -0.046
barasertib
  log2 fold change: inactive: -0.042

## BRD8 isoform 2 (UniProt Q9H0E9)
[1]
  log2 fold change: inactive: -0.013
[2]
  log2 fold change: inactive: -0.333
[3]
  log2 fold change: inactive: -0.044
[4]
  log2 fold change: inactive: -0.023
Nexturastat A
  log2 fold change: inactive: -0.023
vemurafenib
  log2 fold change: inactive: 0.183
[5]
  log2 fold change: inactive: 0.06
givinostat
  log2 fold change: inactive: -0.126
barasertib
  log2 fold change: inactive: -0.039

## BCL7A isoform 2 (UniProt Q4VC05)
[1]
  log2 fold change: inactive: -0.41
[3]
  log2 fold change: inactive: -0.098
Nexturastat A
  log2 fold change: inactive: -0.041
[5]
  log2 fold change: inactive: 0.041
givinostat
  log2 fold change: inactive: -0.066

## BNIP3 (UniProt Q12983)
[1]
  log2 fold change: inactive: 0.011
[2]
  log2 fold change: inactive: -0.026
[3]
  log2 fold change: inactive: 0.022
Nexturastat A
  log2 fold change: inactive: 0.293
vemurafenib
  log2 fold change: inactive: 0.059
[5]
  log2 fold change: inactive: 0.036
[6]
  log2 fold change: inactive: -0.487
barasertib
  log2 fold change: inactive: -0.083

## BCOR (UniProt Q6W2J9)
[1]
  log2 fold change: inactive: -0.264
[4]
  log2 fold change: inactive: -0.161
Nexturastat A
  log2 fold change: inactive: 0.143
vemurafenib
  log2 fold change: inactive: -0.231
givinostat
  log2 fold change: inactive: 0.092
barasertib
  log2 fold change: inactive: 0.023

## BLM (UniProt P54132)
[1]
  log2 fold change: inactive: 0.017
[2]
  log2 fold change: inactive: -0.058
[3]
  log2 fold change: inactive: 0.032
[4]
  log2 fold change: inactive: 0.014
vemurafenib
  log2 fold change: inactive: -0.014
[5]
  log2 fold change: inactive: 0.06
[6]
  log2 fold change: inactive: -0.055
givinostat
  log2 fold change: inactive: 0.047
barasertib
  log2 fold change: inactive: 0.011

## BPTF (UniProt Q12830)
[1]
  log2 fold change: inactive: 0.053
[4]
  log2 fold change: inactive: 0.165
Nexturastat A
  log2 fold change: inactive: -0.086
givinostat
  log2 fold change: inactive: 0.189

## AZI2 (UniProt Q9H6S1)
[1]
  log2 fold change: inactive: -0.091
[2]
  log2 fold change: inactive: 0.045
vemurafenib
  log2 fold change: inactive: 0.047
givinostat
  log2 fold change: inactive: 0.028
barasertib
  log2 fold change: inactive: -0.023

## BPIFA1 (UniProt Q9NP55)
[1]
  log2 fold change: inactive: -0.159
[2]
  log2 fold change: inactive: 0.218
[4]
  log2 fold change: inactive: -0.019
[6]
  log2 fold change: inactive: 0.054
barasertib
  log2 fold change: inactive: 1.7

## BCL2L11 (UniProt O43521)
[1]
  log2 fold change: inactive: -0.1
[2]
  log2 fold change: inactive: 0.055
Nexturastat A
  log2 fold change: inactive: -0.013
vemurafenib
  log2 fold change: inactive: 0.042
[6]
  log2 fold change: inactive: -0.02
givinostat
  log2 fold change: inactive: -0.022
